These results are taken from the supplement of paper PMC7125110.

± gives the standard error. Many entries were measured with a wide error.

B1: glmS ribozyme (parent)
chain: AUAAAAGCGCCAGAACUACAGAAAUGUAGUUGACGAGGAGGAGGUUUAUCGAAUUUUCGGCGGAUGCCUCCAAA

Variants of B1 are the subject of the series. The series can be described thus: self-cleavage kobs at 10000 uM GlcN6P; higher = faster cleavage; RNA array. Conditions: with glucosamine-6-phosphate. A digest of the protocol: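 kobs was derived by fitting per-tile medians to one- or two-exponential decays after normalising signals to baseline and to non-cleaving reference variants. Those signals came from barcoded ribozyme variants transcribed in situ by E. coli RNA polymerase on sequenced MiSeq chips, followed through a hybridised Cy3 probe at 37 °C and imaged over ~14 h. Glucosamine-6-phosphate (40 μM to 10 mM) in HEPES/KCl/Mg(OAc)2 buffer was flowed in. Weighted Michaelis–Menten fits across concentrations then gave kcat and KM.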
Take AUAAAAGCGCCAGAACUACAGAAAUGUAGUAGACGAGGAGGAGGUUUUUCGAAUUCUCGGCGGAUGCCUCCAAA [U31A A48U U56C]: the “self-cleavage kobs at 10000 uM GlcN6P” value turned out to be 3.23e-05 ± 1.9e-05 s⁻¹.

On to AUAAAAGCGCCAGAACUACAGAAAUGUAGUUGCCGAGGAAGAGGUUUAUCGAAUUUUCGGCGGAUGCCUCCAAA [A33C G40A], for which the “self-cleavage kobs at 10000 uM GlcN6P” value is 1.64e-05 ± 1.3e-05 s⁻¹.

For AUAAAAGCGCCAGAACUACAGAAAUGUAGCUUAGGAGGAGGAGGUUUAUGGAAUUUUCGGCGGAUGCCUCCAAA [U30C G32U C34G C50G], the “self-cleavage kobs at 10000 uM GlcN6P” value was 3.45e-05 ± 2e-05 s⁻¹.

For the variant AUAAAAGCGCCAGAACUACAGAAAUGUAGUUGAUGAGGAGGAGGUUUAUCGAAUUUUCGGCGGAUGCCUACAAA [C34U C70A], the “self-cleavage kobs at 10000 uM GlcN6P” value was 0.000789 ± 0.00064 s⁻¹.

Turning to AUAAAAGCGCCAGAACUACAGAAAUGUAGUAGACGAGGAGGAGGUUUAUCGAAUUUUCUGCGGAUGCCUCCAAA [U31A G59U], the “self-cleavage kobs at 10000 uM GlcN6P” value came to 2.94e-05 ± 1.7e-05 s⁻¹.

Turning to AUAAAAGCGCCAGAACUACAGAAAUGUAGGCGACGAGGAGGAGGUUUAUCGAAUUUUCGGCGGAUGCCUGCAAA [U30G U31C C70G], the “self-cleavage kobs at 10000 uM GlcN6P” value is 3.38e-05 ± 2.4e-05 s⁻¹.

As for AUAAAAGCGCCAGAACUACAGAAAUGUAGUUGGCAAGGAGGAGGUGUAUGGAAUUUUCGGCGGAUGCCUCCAAA [A33G G35A U46G C50G], the “self-cleavage kobs at 10000 uM GlcN6P” value was 1.83e-05 ± 1.8e-05 s⁻¹.

Regarding AUAAAAGCGCCAGAACUACAGAAAUGUAGUAGACGAGGAGGAGGUUUAUCGAACUUUGGGCGGAUGCCUCCAAA [U31A U54C C58G], the “self-cleavage kobs at 10000 uM GlcN6P” value was 1.94e-05 ± 1.2e-05 s⁻¹.

With AUAAAAGCGCCAGAACUACAGAAAUGUAGUUAACGAGGAGGAGGUUUUUCGAAUUUUCGGCGGAUGCCUCCAAA [G32A A48U], the “self-cleavage kobs at 10000 uM GlcN6P” value was determined as 2.44e-05 ± 1.2e-05 s⁻¹.

With AUAAAAGCGCCAGAACUACAGAAAUGUAGUUAACGAGGAGGAGGUUUCUCGAAUUUUCGGCGGAUGCCUCCAAA [G32A A48C], the “self-cleavage kobs at 10000 uM GlcN6P” value is 2.86e-05 ± 1.8e-05 s⁻¹.

Consider AUAAAAGCGCCAGAACUACAGAAAUGUAGUAGACGAGGAGGAGGUUUAUUGAGUUUUCGGCGGAUGCCUCCAAA [U31A C50U A53G], for which the “self-cleavage kobs at 10000 uM GlcN6P” value is 2.62e-05 ± 1.7e-05 s⁻¹.

On to AUAAAAGCGCCAGAACUACAGAAAUGUAGUGGACGACGAGGAGGUUUAUCGAAUUUUCGGCGGAUGCCUCCAAA [U31G G37C], for which the “self-cleavage kobs at 10000 uM GlcN6P” value is 2.53e-05 ± 1.3e-05 s⁻¹.

In the case of AUAAAAGCGCCAGAACUACAGAAAUGUAGUUGUCGAGGACGAGGUUUAUCGAAUUUUCGGCGGAUGCCUCAAAA [A33U G40C C71A], the “self-cleavage kobs at 10000 uM GlcN6P” value was 2.6e-05 ± 1.5e-05 s⁻¹.

As for AUAAAAGCGCCAGAACUACAGAAAUGUAGGUGACGAGGAGGGGGUUUAUCGAAUUUUUGGCGGAUGCCUCCAAA [U30G A42G C58U], the “self-cleavage kobs at 10000 uM GlcN6P” value turned out to be 4.12e-05 ± 2.5e-05 s⁻¹.

Regarding AUAAAAGCGCCAGAACUACAGAAAUGUAGUAGACGACGAGGAGGUUUAUCGAAUUUUCGGCGGAUGCCUCCAAA [U31A G37C], the “self-cleavage kobs at 10000 uM GlcN6P” value was 2.83e-05 ± 2.1e-05 s⁻¹.

As to AUAAAAGCGCCAGAACUACAGAAAUGUAGUUGAUGAGGAGGAGGUUUAUCGAAUUUUCGGCGGAAGCAUCCAAA [C34U U65A C68A], the “self-cleavage kobs at 10000 uM GlcN6P” value turned out to be 3.25e-05 ± 2.4e-05 s⁻¹.

In the case of AUAAAAGCGCCAGAACUACAGAAAUGUAGUGGACGAGGAGGAGGUUUAUCGUAGUUUCGGCGGAUGCCUCCAAA [U31G A52U U54G], the “self-cleavage kobs at 10000 uM GlcN6P” value amounted to 3.73e-05 ± 2.2e-05 s⁻¹.

For AUAAAAGCGCCAGAACUACAGAAAUGUAGUUCACGAGGAGGAGGUUGAUCGAAUUUUCGGCGGAUGCCUCCAAA [G32C U47G], the “self-cleavage kobs at 10000 uM GlcN6P” value stood at 1.16e-05 ± 1e-05 s⁻¹.

Take AUAAAAGCGCCAGAACUACAGAAAUGUAGGUGACGAGGAGGAGGUUUAUCGAAUAUUCGGCGGAUGCCUCCAAA [U30G U55A]: the “self-cleavage kobs at 10000 uM GlcN6P” value was 0.0235 ± 0.013 s⁻¹.

On to AUAAAAGCGCCAGAACUACAGAAAUGUAGGUGACGAGGAGGAGGUUUAUCGAAUUUGCGGCGGAUGCCUCCAAA [U30G U57G], for which the “self-cleavage kobs at 10000 uM GlcN6P” value came to 1.92e-05 ± 1.2e-05 s⁻¹.

AUAAAAGCGCCAGAACUACAGAAAUGUAGGUGACGAGGAGGAGGUUUAUCGAAUUGUUGGCGGAUGCCCCCAAA [U30G U56G C58U U69C]: the “self-cleavage kobs at 10000 uM GlcN6P” value came to 2.82e-05 ± 2.2e-05 s⁻¹.

With AUAAAAGCGCCAGAACUACAGAAAUGUAGUUGAAGAGGAGGAGGUUUAUCGAAUUUUCGGCGGAUGCCUCCAAA [C34A], the “self-cleavage kobs at 10000 uM GlcN6P” value is less than 1e-05 s⁻¹.

AUAAAAGCGCCAGAACUACAGAAAUGUAGUAGACGAGGGGGAGGUUUAUCGAAUUUUCGGCGGAUGCCCCCAAA [U31A A39G U69C]: the “self-cleavage kobs at 10000 uM GlcN6P” value came to 3.16e-05 ± 2.4e-05 s⁻¹.

Consider AUAAAAGCGCCAGAACUACAGAAAUGUAGUUGUCGAGGAGGAGGUUUAUAGAAUUUUCGGCGGAUGCGUCCAAA [A33U C50A C68G], for which the “self-cleavage kobs at 10000 uM GlcN6P” value stood at 2.25e-05 ± 2.1e-05 s⁻¹.

For the variant AUAAAAGCGCCAGAACUACAGAAAUGUAGUUGCCGAGGAGGAGGUUUAUCGAAUUUUCGGCGGAUUCCUCCAAA [A33C G66U], the “self-cleavage kobs at 10000 uM GlcN6P” value came out at 1.76e-05 ± 1.3e-05 s⁻¹.

For the variant AUAAAAGCGCCAGAACUACAGAAAUGUAGUCAACGAGGAGGAGGUUUAUCGAAUAUUCGGCGGAUGCCUCGAAA [U31C G32A U55A C71G], the “self-cleavage kobs at 10000 uM GlcN6P” value worked out at 3.42e-05 ± 1.9e-05 s⁻¹.

Consider AUAAAAGCGCCAGAACUACAGAAAUGUAGUUGCCGAGGAGGAGGUAUAUCGAAUUUUCGGCGGAUGCCUCCAAA [A33C U46A], for which the “self-cleavage kobs at 10000 uM GlcN6P” value was 2.53e-05 ± 1.6e-05 s⁻¹.

With AUAAAAGCGCCAGAACUACAGAAAUGUAGUGGACGAGGAGGAGGUUUAUAGAAUUGUCGGCGGAUGCCGCCAAA [U31G C50A U56G U69G], the “self-cleavage kobs at 10000 uM GlcN6P” value was found to be 2.31e-05 ± 2e-05 s⁻¹.

AUAAAAGCGCCAGAACUACAGAAAUGUAGUUAACGAGGAGGAGGUUUAUCGAAUUUGCGGCGGAUGCCUCCAAA [G32A U57G]: the “self-cleavage kobs at 10000 uM GlcN6P” value was found to be 2.06e-05 ± 1.3e-05 s⁻¹.

In the case of AUAAAAGCGCCAGAACUACAGAAAUGUAGUUGACAAGGAGGAGGUUUAUCGAAUUUUCGGCGGAUGGCUCCAAA [G35A C67G], the “self-cleavage kobs at 10000 uM GlcN6P” value was determined as 1.7e-05 ± 1.5e-05 s⁻¹.

In the case of AUAAAAGCGCCAGAACUACAGAAAUGUAGGAGUCGAGGAGGAGGUUUAUCGAAUUUUCGGCGGAUGCCUCCAAA [U30G U31A A33U], the “self-cleavage kobs at 10000 uM GlcN6P” value stood at 2.4e-05 ± 1.2e-05 s⁻¹.

In the case of AUAAAAGCGCCAGAACUACAGAAAUGUAGGUGACGAGGAGGAAGUUUAUCGAAUUUUCGGCGGAUGCCUCCAAA [U30G G43A], the “self-cleavage kobs at 10000 uM GlcN6P” value came out at 1.6e-05 ± 1.6e-05 s⁻¹.

Consider AUAAAAGCGCCAGAACUACAGAAAUGUAGUGGACGAGGAGGAGGUUUAUCGAAUUUUCGGCGGUUGCCUCCAAA [U31G A64U], for which the “self-cleavage kobs at 10000 uM GlcN6P” value is 1.75e-05 ± 1e-05 s⁻¹.

As for AUAAAAGCGCCAGAACUACAGAAAUGUAGUUUACGAGGAGGAGGUUUAUCGAAUAUUCGGCGGACGCCUCCAAA [G32U U55A U65C], the “self-cleavage kobs at 10000 uM GlcN6P” value turned out to be 2.56e-05 ± 2e-05 s⁻¹.

Regarding AUAAAAGCGCCAGAACUACAGAAAUGUAGUUGUCGAGGAGGAGGUUUAUCGAAUUGUCGGCGGAUGCCUCCAAA [A33U U56G], the “self-cleavage kobs at 10000 uM GlcN6P” value stood at 2.51e-05 ± 1.4e-05 s⁻¹.

As for AUAAAAGCGCCAGAACUACAGAAAUGUAGUUAACGAGAAGGAGGUUUAUGGAAUUUUCGGCGGAUGCCUACAAA [G32A G38A C50G C70A], the “self-cleavage kobs at 10000 uM GlcN6P” value was found to be 2.57e-05 ± 1.4e-05 s⁻¹.

For AUAAAAGCGCCAGAACUACAGAAAUGUAGUCGACGAGGAGGAGGUUUAUGGAAUUUUCGGCGGAUGCCUCCAAA [U31C C50G], the “self-cleavage kobs at 10000 uM GlcN6P” value came out at 1.81e-05 ± 1.2e-05 s⁻¹.
